The supplement of paper PMC6411743
± gives the standard deviation of the averaged measurements. The entries are a selection whose mix differs from that of the whole data set.

Target: VKORC1 (UniProt Q9BQB6)
Test: NP40-soluble protein abundance relative to vehicle (solubility fold change) (ratio); higher = more soluble protein in presence of ATP
Procedure, shortened: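 Eight concentrations, 0.1 to 10 mM, were tested on Jurkat crude lysate for 10 min at room temperature and then 3 min at 37 °C, in three independent experiments. The lysate was solubilised with 0.8% NP40 and benzonase, ultracentrifuged, and the supernatant TMT-labelled for LC-MS/MS. Each value is the fold change against the detergent-processed vehicle in its own replicate, from vsn-normalised intensities.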

Q: For `Nc1ncnc2c1ncn2[C@@H]1O[C@H](COP(=O)(O)OP(=O)(O)OP(=O)(O)O)[C@@H](O)[C@H]1O` [adenosine triphosphate], which NP40-soluble protein abundance (concentration: 1mM) is on record?
A: The NP40-soluble protein abundance was 1.08 ± 0.15.

Q: And the NP40-soluble protein abundance (concentration: 2mM)?
A: The NP40-soluble protein abundance was 1.06 ± 0.092.

Q: And the NP40-soluble protein abundance (concentration: 4mM)?
A: Its NP40-soluble protein abundance is 1.04 ± 0.088.

Q: And the NP40-soluble protein abundance (concentration: 6mM)?
A: Its NP40-soluble protein abundance is 0.948 ± 0.099.

Q: What about the NP40-soluble protein abundance (concentration: 8mM) of the same compound?
A: Its NP40-soluble protein abundance is 0.982 ± 0.035.

Q: What about the NP40-soluble protein abundance (concentration: 10mM) of the same compound?
A: Its NP40-soluble protein abundance is 1.035 ± 0.0075.
